Assay results published in paper PMC6406377.
No constants are given. Whether binding was seen depends on the method and setting. Binding seen in cells or lysates may run through a third protein. Some binding calls cover weakened binding; strength is not graded here.

Amino acid sequences for entries named in this document (tags omitted).
UniProt P10242: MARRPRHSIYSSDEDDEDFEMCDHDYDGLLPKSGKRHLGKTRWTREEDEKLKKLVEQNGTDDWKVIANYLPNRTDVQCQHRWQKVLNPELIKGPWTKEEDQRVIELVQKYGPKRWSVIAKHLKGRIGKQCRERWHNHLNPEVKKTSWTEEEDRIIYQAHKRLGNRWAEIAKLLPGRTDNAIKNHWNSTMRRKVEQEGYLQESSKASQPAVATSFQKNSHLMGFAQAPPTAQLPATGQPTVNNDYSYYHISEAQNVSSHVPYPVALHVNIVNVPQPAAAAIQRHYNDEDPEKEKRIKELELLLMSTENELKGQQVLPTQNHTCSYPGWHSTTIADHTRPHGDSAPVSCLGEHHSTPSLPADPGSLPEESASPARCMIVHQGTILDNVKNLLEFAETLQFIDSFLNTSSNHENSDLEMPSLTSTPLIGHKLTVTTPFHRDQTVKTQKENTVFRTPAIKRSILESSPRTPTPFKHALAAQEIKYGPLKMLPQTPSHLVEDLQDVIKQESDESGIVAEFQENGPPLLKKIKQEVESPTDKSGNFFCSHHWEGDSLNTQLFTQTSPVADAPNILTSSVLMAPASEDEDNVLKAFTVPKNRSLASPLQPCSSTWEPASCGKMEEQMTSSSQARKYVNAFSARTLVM

Molecular target: c-MYB (Avian myeloblastosis viral oncogene homolog) (human (endogenous in 786-O and A498)) (UniProt P10242)
Experiment: co-IP; 1 mg of cell extracts from 786-O and A498 incubated overnight with anti-c-MYB or normal IgG on protein A Sepharose; washed with PBS-BSA and IGEPAL 0.2%; western blot with c-MYB and MYBBP1A antibodies

binding: binds
B1: MYB binding protein 1A (MYBBP1A) (protein, UniProt Q9BQG0 1-1328)
chain: MESRDPAQPMSPGEATQSGARPADRYGLLKHSREFLDFFWDIAKPEQETRLAATEKLLEYLRGRPKGSEMKYALKRLITGLGVGRETARPCYSLALAQLLQSFEDLPLCSILQQIQEKYDLHQVKKAMLRPALFANLFGVLALFQSGRLVKDQEALMKSVKLLQALAQYQNHLQEQPRKALVDILSEVSKATLQEILPEVLKADLNIILSSPEQLELFLLAQQKVPSKLKKLVGSVNLFSDENVPRLVNVLKMAASSVKKDRKLPAIALDLLRLALKEDKFPRFWKEVVEQGLLKMQFWPASYLCFRLLGAALPLLTKEQLHLVMQGDVIRHYGEHVCTAKLPKQFKFAPEMDDYVGTFLEGCQDDPERQLAVLVAFSSVTNQGLPVTPTFWRVVRFLSPPALQGYVAWLRAMFLQPDLDSLVDFSTNNQKKAQDSSLHMPERAVFRLRKWIIFRLVSIVDSLHLEMEEALTEQVARFCLFHSFFVTKKPTSQIPETKHPFSFPLENQAREAVSSAFFSLLQTLSTQFKQAPGQTQGGQPWTYHLVQFADLLLNHSHNVTTVTPFTAQQRQAWDRMLQTLKELEAHSAEARAAAFQHLLLLVGIHLLKSPAESCDLLGDIQTCIRKSLGEKPRRSRTKTIDPQEPPWVEVLVEILLALLAQPSHLMRQVARSVFGHICSHLTPRALQLILDVLNPETSEDENDRVVVTDDSDERRLKGAEDKSEEGEDNRSSESEEESEGEESEEEERDGDVDQGFREQLMTVLQAGKALGGEDSENEEELGDEAMMALDQSLASLFAEQKLRIQARRDEKNKLQKEKALRRDFQIRVLDLVEVLVTKQPENALVLELLEPLLSIIRRSLRSSSSKQEQDLLHKTARIFTHHLCRARRYCHDLGERAGALHAQVERLVQQAGRQPDSPTALYHFNASLYLLRVLKGNTAEGCVHETQEKQKAGTDPSHMPTGPQAASCLDLNLVTRVYSTALSSFLTKRNSPLTVPMFLSLFSRHPVLCQSLLPILVQHITGPVRPRHQACLLLQKTLSMREVRSCFEDPEWKQLMGQVLAKVTENLRVLGEAQTKAQHQQALSSLELLNVLFRTCKHEKLTLDLTVLLGVLQGQQQSLQQGAHSTGSSRLHDLYWQAMKTLGVQRPKLEKKDAKEIPSATQSPISKKRKKKGFLPETKKRKKRKSEDGTPAEDGTPAATGGSQPPSMGRKKRNRTKAKVPAQANGTPTTKSPAPGAPTRSPSTPAKSPKLQKKNQKPSQVNGAPGSPTEPAGQKQHQKALPKKGVLGKSPLSALARKKARLSLVIRSPSLLQSGAKKKAQVRKAGKP
